According to PMC4220973, “Structural insights into the human RyR2 N-terminal region involved in cardiac arrhythmias” (Acta Crystallographica Section D: Biological Crystallography, 2014):
Results are given in words; binding and its absence hold for the method and conditions named.

Assays:
Assay in all cases: SEC; analytical size-exclusion chromatography at 4°C; self-association, monomer to dimer; both purified
[1] = biological target: hRyR2^1-606 I419F/R420W double mutant (human) (UniProt Q92736)
[2] = biological target: hRyR2^1-606 R420W mutant (human) (UniProt Q92736)
[3] = biological target: human ryanodine receptor 2 N-terminal fragment encompassing amino acids 1-606 (hRyR2^1-606), wild type (human) (UniProt Q92736)

For “hRyR2^1-606 I419F/R420W double mutant (from UniProt Q92736 1-606) (domain or fragment)”, the binding [1] was “no binding”.

With “hRyR2^1-606 R420W mutant (from UniProt Q92736 1-606) (domain or fragment)” the binding [2] was “no binding”.

“human ryanodine receptor 2 N-terminal fragment encompassing amino acids 1-606 (hRyR2^1-606), wild type (from UniProt Q92736 1-606) (domain or fragment)” was tested, and the binding [3] was “no binding”.
